{"source": "the supplement of paper PMC4604168 (melanoma cell lines)", "test_in_all_cases": "cleaved PARP positive nuclei fraction relative to DMSO control; melanoma cells; higher = more apoptosis", "conditions_in_all_cases": "library dose: low library concentration; 72 h", "key": {"COLO792": {"tested_on": "COLO792"}, "COLO800": {"tested_on": "COLO800"}, "COLO829": {"tested_on": "COLO829"}, "G361": {"tested_on": "G361"}, "IPC-298": {"tested_on": "IPC-298"}, "IST-MEL1": {"tested_on": "IST-MEL1"}, "LB2518-MEL": {"tested_on": "LB2518-MEL"}, "LOXIMVI": {"tested_on": "LOXIMVI"}}, "note": "Some of the results follow. Many values rest on one well or one pass, so single values are uncertain.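 The apoptosis fraction was the count of cleaved-PARP antibody-stained nuclei relative to all DNA-stained nuclei, imaged in 1,536-well plates. Screening doses were set so most cells survived, and baseline and induced cleaved-PARP levels vary greatly across cell lines.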"}
{"molecule": "CC1(C)CCC(c2ccc(Cl)cc2)=C(CN2CCN(c3ccc(C(=O)NS(=O)(=O)c4ccc(N[C@H](CCN5CCOCC5)CSc5ccccc5)c(S(=O)(=O)C(F)(F)F)c4)cc3)CC2)C1", "note": "+ CCN(CC)CCCCNc1ncc2cc(-c3cc(OC)cc(OC)c3)c(NC(=O)NC(C)(C)C)nc2n1 [PD173074] (first compound 0.4 µM, partner dose 0.1 µM)", "values": [{"measurement": "cleaved PARP positive nuclei fraction", "setting": "COLO792", "result": 230, "unit": "%"}, {"measurement": "cleaved PARP positive nuclei fraction", "setting": "COLO800", "result": 66.4, "unit": "%"}, {"measurement": "cleaved PARP positive nuclei fraction", "setting": "COLO829", "result": 93.3, "unit": "%"}, {"measurement": "cleaved PARP positive nuclei fraction", "setting": "G361", "result": 160, "unit": "%"}, {"measurement": "cleaved PARP positive nuclei fraction", "setting": "IPC-298", "result": 189, "unit": "%"}, {"measurement": "cleaved PARP positive nuclei fraction", "setting": "IST-MEL1", "result": 144, "unit": "%"}, {"measurement": "cleaved PARP positive nuclei fraction", "setting": "LB2518-MEL", "result": 163, "unit": "%"}, {"measurement": "cleaved PARP positive nuclei fraction", "setting": "LOXIMVI", "result": 146, "unit": "%"}]}
{"molecule": "NC1(c2ccc(-c3nc4ccn5c(=O)[nH]nc5c4cc3-c3ccccc3)cc2)CCC1", "note": "+ CCCCCCCCCCCC1=C(O)C(=O)C=C(O)C1=O [Embelin] (first compound 0.4 µM, partner dose 1.2 µM)", "values": [{"measurement": "cleaved PARP positive nuclei fraction", "setting": "COLO792", "result": 190, "unit": "%"}, {"measurement": "cleaved PARP positive nuclei fraction", "setting": "COLO800", "result": 222, "unit": "%"}, {"measurement": "cleaved PARP positive nuclei fraction", "setting": "COLO829", "result": 63.7, "unit": "%"}, {"measurement": "cleaved PARP positive nuclei fraction", "setting": "G361", "result": 128, "unit": "%"}, {"measurement": "cleaved PARP positive nuclei fraction", "setting": "IPC-298", "result": 92, "unit": "%"}, {"measurement": "cleaved PARP positive nuclei fraction", "setting": "IST-MEL1", "result": 114, "unit": "%"}, {"measurement": "cleaved PARP positive nuclei fraction", "setting": "LB2518-MEL", "result": 144, "unit": "%"}, {"measurement": "cleaved PARP positive nuclei fraction", "setting": "LOXIMVI", "result": 149, "unit": "%"}]}
{"molecule": "C[C@@H](N)c1ccc(C(=O)Nc2ccnc3[nH]ccc23)cc1", "note": "+ COc1ccc2c(c1)CCC1C2CCC2(C)C(NCCCCCCN3C(=O)C=CC3=O)CCC12 [U73122] (first compound 0.4 µM, partner dose 0.4 µM)", "values": [{"measurement": "cleaved PARP positive nuclei fraction", "setting": "COLO792", "result": 141, "unit": "%"}, {"measurement": "cleaved PARP positive nuclei fraction", "setting": "COLO800", "result": 96.1, "unit": "%"}, {"measurement": "cleaved PARP positive nuclei fraction", "setting": "COLO829", "result": 82.2, "unit": "%"}, {"measurement": "cleaved PARP positive nuclei fraction", "setting": "G361", "result": 135, "unit": "%"}, {"measurement": "cleaved PARP positive nuclei fraction", "setting": "IPC-298", "result": 283, "unit": "%"}, {"measurement": "cleaved PARP positive nuclei fraction", "setting": "IST-MEL1", "result": 251, "unit": "%"}, {"measurement": "cleaved PARP positive nuclei fraction", "setting": "LB2518-MEL", "result": 121, "unit": "%"}, {"measurement": "cleaved PARP positive nuclei fraction", "setting": "LOXIMVI", "result": 214, "unit": "%"}]}
{"molecule": "CCN(CC)CCNC(=O)c1c(C)[nH]c(/C=C2\\C(=O)Nc3ccc(F)cc32)c1C", "note": "[sunitinib] + CCN(CC)CCCCNc1ncc2cc(-c3cc(OC)cc(OC)c3)c(NC(=O)NC(C)(C)C)nc2n1 [PD173074] (first compound 0.4 µM, partner dose 0.1 µM)", "values": [{"measurement": "cleaved PARP positive nuclei fraction", "setting": "COLO792", "result": 126, "unit": "%"}, {"measurement": "cleaved PARP positive nuclei fraction", "setting": "COLO800", "result": 94.7, "unit": "%"}, {"measurement": "cleaved PARP positive nuclei fraction", "setting": "COLO829", "result": 37.5, "unit": "%"}, {"measurement": "cleaved PARP positive nuclei fraction", "setting": "G361", "result": 139, "unit": "%"}, {"measurement": "cleaved PARP positive nuclei fraction", "setting": "IPC-298", "result": 185, "unit": "%"}, {"measurement": "cleaved PARP positive nuclei fraction", "setting": "IST-MEL1", "result": 62.9, "unit": "%"}, {"measurement": "cleaved PARP positive nuclei fraction", "setting": "LB2518-MEL", "result": 92, "unit": "%"}, {"measurement": "cleaved PARP positive nuclei fraction", "setting": "LOXIMVI", "result": 33.1, "unit": "%"}]}
{"molecule": "CN(c1ncccc1CNc1nc(Nc2ccc3c(c2)CC(=O)N3)ncc1C(F)(F)F)S(C)(=O)=O", "note": "+ O=c1cc(-c2cccc3c2Sc2ccccc2S3)oc(N2CCOCC2)c1 [KU55933] (first compound 0.08 µM, partner dose 1 µM)", "values": [{"measurement": "cleaved PARP positive nuclei fraction", "setting": "COLO792", "result": 117, "unit": "%"}, {"measurement": "cleaved PARP positive nuclei fraction", "setting": "COLO800", "result": 44.8, "unit": "%"}, {"measurement": "cleaved PARP positive nuclei fraction", "setting": "COLO829", "result": 72.5, "unit": "%"}, {"measurement": "cleaved PARP positive nuclei fraction", "setting": "G361", "result": 93.4, "unit": "%"}, {"measurement": "cleaved PARP positive nuclei fraction", "setting": "IPC-298", "result": 144, "unit": "%"}, {"measurement": "cleaved PARP positive nuclei fraction", "setting": "IST-MEL1", "result": 51.4, "unit": "%"}, {"measurement": "cleaved PARP positive nuclei fraction", "setting": "LB2518-MEL", "result": 55.6, "unit": "%"}, {"measurement": "cleaved PARP positive nuclei fraction", "setting": "LOXIMVI", "result": 75.8, "unit": "%"}]}
